This passage reports binding results from publication PMC2994726 (PLoS ONE, 2010).

Sequences of proteins named here, by UniProt entry; tags and fusion partners are left off. A change or cut given only in a name is not applied to a line headed by its entry.
UniProt P25095: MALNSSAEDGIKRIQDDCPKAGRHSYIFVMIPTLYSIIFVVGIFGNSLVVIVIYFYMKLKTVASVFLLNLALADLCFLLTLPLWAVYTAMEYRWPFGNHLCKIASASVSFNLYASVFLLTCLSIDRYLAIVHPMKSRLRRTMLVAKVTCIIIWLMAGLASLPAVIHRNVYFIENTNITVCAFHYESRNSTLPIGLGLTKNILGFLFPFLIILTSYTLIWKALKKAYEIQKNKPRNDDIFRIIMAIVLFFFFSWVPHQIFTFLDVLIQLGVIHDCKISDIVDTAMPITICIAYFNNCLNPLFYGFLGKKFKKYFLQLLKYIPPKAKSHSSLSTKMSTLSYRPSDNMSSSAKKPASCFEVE

Results are given in words; binding and its absence hold for the method and conditions named. Binding seen in cells or lysates may run through a third protein. Some binding calls cover weakened binding; strength is not graded here.

Experiment [1] deals with Luc-tagged rat AT1a receptor D74N, full length (rat) (UniProt P25095). The experiment in a line: FRET or BRET; BRET1 in live HEK293 cells co-transfected with Luc-tagged AT1R and YFP-β-arrestin2, with or without overexpressed Gαq; dose-response to Ang II. (In general: Bioluminescence resonance energy transfer reports proximity on the nanometre scale.)
The target of experiment [2] is Luc-tagged rat AT1a receptor Y302F, full length (rat) (UniProt P25095). The description is as above.

Turning to “YFP-β-arrestin2 (from UniProt P32121 1-409)”, the binding result in experiment [1] and in experiment [2] was “binds” throughout.
